Structures can show the parent of a compound that is named as a salt.

This series in a line: Base excess (BE), potential base excess (BEpot) and Na-addition, derived. The conditions noted are these: for BE / BEpot / Na-addition: 10 mmol/l in blood: dilution 1:10 of a 100 mmol/l solution.

As to `N=C(N)NCCC[C@H](N)C(=O)O.O=C(O)O` [Arg HCO3], the “metabolic effect on the acid-base balance (in words)” value (“metabolic effect” for short) was “acts neutral”.
With `CC(=O)O` [acetic acid], the “metabolic effect” value was “acts reversibly as acid”.
On to `O=C([O-])CC(O)(CC(=O)[O-])C(=O)O.[Na+].[Na+]` [Na2H citrate], for which the BE is -10 mmol/L, the BEpot entry was “+20 mmol/l” and the Na-addition came out at 20 mmol/L.
Take `Cl.N=C(N)NCCC[C@H](N)C(=O)O` [Arg HCl, arginine hydrochloride]: the “metabolic effect” value is “acts as acid”.
With `O=C(O)CC(O)(CC(=O)O)C(=O)O` [Na3 citrate], the BE was 0 mmol/L, the BEpot entry is reported as “+30 mmol/l” and the Na-addition is 30 mmol/L.
On to `Cl.N` [ammonium chloride], for which the “metabolic effect” value is listed as “acts as acid”.
Turning to `CC(=O)[O-].[Na+]` [sodium acetate], the “metabolic effect” value is recorded as “acts irreversibly as alkalising”.
With `O=C(O)CC(O)(CC(=O)O)C(=O)O` [NaH2 citrate], the BE is -20 mmol/L, the BEpot entry is recorded as “+10 mmol/l” and the Na-addition was 10 mmol/L.
In the case of `O=C(O)CC(O)(CC(=O)O)C(=O)O` [citric acid], the BE is -30 mmol/L, the BEpot worked out at 0 mmol/L and the Na-addition was 0 mmol/L.
